No constants are given. Whether binding was seen depends on the method and setting. Some results given as binding are weak or reduced against the parent protein; the word gives no strength.
What was measured:
[1] = molecular target: TACI, full length, on transiently transfected cells (human) (UniProt O14836); assay: FACS on transiently transfected cells
[2] = molecular target: TACI, full length, on transiently transfected cells (human) (UniProt O14836); assay: FACS on cells transiently transfected with the full-length receptor
[3] = molecular target: TACI, full length, on transiently transfected cells (human) (UniProt O14836); assay: FACS on cells transiently transfected with the full-length receptor; positive if MFI is two times the negative control
[4] = molecular target: human BCMA (huBCMA), full length, on cells (human) (UniProt Q02223); assay: as above
[5] = molecular target: clipped form of the rhuBCMA fusion protein, SEQ ID NO:354 (human); assay: LC/MS chromatogram of bound forms (peak A)
[6] = molecular target: clipped form of the rhuBCMA fusion protein, SEQ ID NO:357 (human); assay: LC/MS chromatogram of bound forms (peak B)
[7] = molecular target: clipped form of the rhuBCMA fusion protein, SEQ ID NO:358 (human); assay: LC/MS chromatogram of bound forms (peak C)
[8] = molecular target: clipped form of the rhuBCMA fusion protein, SEQ ID NO:356 (human); assay: LC/MS chromatogram of bound forms (peak E)
[9] = molecular target: clipped form of the rhuBCMA fusion protein, SEQ ID NO:354 (human); assay: SEC capture of complexes, LC/MS of bound forms (peak A)
[10] = molecular target: clipped form of the rhuBCMA fusion protein, SEQ ID NO:357 (human); assay: SEC capture of complexes, LC/MS of bound forms (peak B)
[11] = molecular target: clipped form of the rhuBCMA fusion protein, SEQ ID NO:358 (human); assay: SEC capture of complexes, LC/MS of bound forms (peak C)
[12] = molecular target: clipped form of the rhuBCMA fusion protein, SEQ ID NO:356 (human); assay: SEC capture of complexes, LC/MS of bound forms (peak E)
[13] = molecular target: clipped form of the rhuBCMA fusion protein, SEQ ID NO:354 (human); assay: size exclusion chromatography of antibody plus Sumo-BCMA
[14] = molecular target: clipped form of the rhuBCMA fusion protein, SEQ ID NO:355 (human); assay: as above
[15] = molecular target: clipped form of the rhuBCMA fusion protein, SEQ ID NO:356 (human); assay: as above
[16] = molecular target: clipped form of the rhuBCMA fusion protein, SEQ ID NO:354 (human); assay: LC/MS (ESI-TOF, reduced sample) of the SEC-isolated 29C12 + SumoBCMA sample
[17] = molecular target: clipped form of the rhuBCMA fusion protein, SEQ ID NO:356 (human); assay: as above
[18] = molecular target: clipped form of the rhuBCMA fusion protein, SEQ ID NO:357 (human); assay: as above
[19] = molecular target: clipped form of the rhuBCMA fusion protein, SEQ ID NO:358 (human); assay: as above

By UniProt entry, the sequences of proteins in these tests, tags left out. Where a name states a change or a piece, a line headed by the entry shows the natural chain unless it says otherwise.
UniProt O14836: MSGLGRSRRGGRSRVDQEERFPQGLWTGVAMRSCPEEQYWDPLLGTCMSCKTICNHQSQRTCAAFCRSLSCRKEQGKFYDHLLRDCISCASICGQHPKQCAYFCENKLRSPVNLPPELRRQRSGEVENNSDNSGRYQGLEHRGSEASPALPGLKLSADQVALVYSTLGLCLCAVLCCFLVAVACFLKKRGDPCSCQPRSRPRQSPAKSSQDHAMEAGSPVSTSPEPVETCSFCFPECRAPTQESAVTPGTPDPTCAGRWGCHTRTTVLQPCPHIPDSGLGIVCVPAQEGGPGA
UniProt Q02223: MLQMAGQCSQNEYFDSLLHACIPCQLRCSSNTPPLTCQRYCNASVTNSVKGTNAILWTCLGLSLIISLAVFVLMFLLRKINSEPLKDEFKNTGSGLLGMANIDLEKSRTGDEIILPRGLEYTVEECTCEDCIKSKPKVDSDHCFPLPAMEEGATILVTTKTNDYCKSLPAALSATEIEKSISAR

Measured: binding

B1: 11F12 (fully human anti-huBCMA monoclonal antibody) (antibody, V domains shown)
VH: QVQLVESGGGVVQPGRSLRLSCAASGFTFSSYGLHWVRQAPGKGLEWVALISYDGSNKYYADSVKGRFTISRDNSKNTLYLQMNSLRAEDTAVYYCWYSSSWTPLDYWGQGTLVTVSS
VL: DIQMTQSPSSLSASVGDRVTITCRASQGIRNDLGWYQQKPGKAPKRLIYAASSLQSGVPSRFSGSGSGTEFTLTISSLQPEDFATYYCLQYYSYPLTFGGGTKVEIKR
binds: [1] | [2] | [3] | [4]

B2: 29C12 (antibody, V domains shown)
VH: EVQLLESGGALVQPGGSLRLSCAASGFTFSSYAMNWVRQAPGKGLEWVSAISVGGDTYYADSVKGRFTISRDNSKNTLYLQMNSLRAEDTAVYYCAKDQVTMVRGVWYYYGLDVWGQGTTVTVSS
VL: DIVMIQSPLSLPVTPGEPASISCRSSQSLLHSNGNNYLDWYLQKPGQSPHLLISLGSNRTSGVPDRFSGSGSGTDFTLKISRVEAEDVGVYYCMQALQPPRRFGQGTKLEIKR
binds: [5] | [6] | [7] | [8] | [9] | [10] | [11] | [12] | [13] | [14] | [15] | [16] | [17] | [18] | [19]
